# Patent publication US20260035690A1
# Protein sequences, listed by entry. Tags and fused reporters are not part of them. Residues count along the entry.
# UniProt P10415, residues 1-207: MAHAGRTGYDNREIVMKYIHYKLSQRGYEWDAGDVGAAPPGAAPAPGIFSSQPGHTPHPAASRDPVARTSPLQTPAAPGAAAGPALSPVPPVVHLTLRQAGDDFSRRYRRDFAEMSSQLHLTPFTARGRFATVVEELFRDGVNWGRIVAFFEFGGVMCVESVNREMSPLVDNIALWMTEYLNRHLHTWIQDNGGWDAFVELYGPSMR
# No constants are given. Whether binding was seen depends on the method and setting. Some results given as binding are weak or reduced against the parent protein; the word gives no strength.
# B1: Bad.BH3 (peptide, UniProt Q92934 103-128, looked up)
# peptide: NLWAAQRYGRELRRMSDEFVDSFKKG
# Target: Bcl2 (UniProt P10415)
# Experiment: one-pot batched yeast mating, barcode sequencing
binder,measurement,value
B1,binding,binds
